The list shows a part of the results.
Experiments:
Assay in all cases: glycan array binding signal (z-score within array); higher = stronger binding
Details in all cases: glycan notation: IUPAC condensed, linker removed
[1] = target: Fuc(a1-2)[GalNAc(a1-3)]Gal(b1-3)GlcNAc(b1-6)GalNAc
Outline: (§1)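 Columns mapping to the same glycan were averaged after glycan names were converted to IUPAC-condensed notation. The data come from 3228 arrays in the Consortium for Functional Glycomics database, limited to those with an available protein sequence. Binding is reported as a within-array Z-score averaged across arrays of one protein sequence and across linkers.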

[2] = target: Fuc(a1-2)[GalNAc(a1-3)]Gal(b1-4)Glc
Outline: as §1

[3] = target: Fuc(a1-2)[GalNAc(a1-3)]Gal(b1-4)GlcNAc
Outline: as §1

[4] = target: Fuc(a1-2)[GalNAc(a1-3)]Gal(b1-4)GlcNAc(b1-2)Man
Outline: as §1

[5] = target: Fuc(a1-2)[GalNAc(a1-3)]Gal(b1-4)GlcNAc(b1-2)Man(a1-3)[Fuc(a1-2)[GalNAc(a1-3)]Gal(b1-4)GlcNAc(b1-2)Man(a1-6)]Man(b1-4)GlcNAc(b1-4)GlcNAc
Outline: as §1

[6] = target: Fuc(a1-2)[GalNAc(a1-3)]Gal(b1-4)GlcNAc(b1-2)Man(a1-3)[Fuc(a1-2)[GalNAc(a1-3)]Gal(b1-4)GlcNAc(b1-2)Man(a1-6)]Man(b1-4)GlcNAc(b1-4)[Fuc(a1-6)]GlcNAc
Outline: as §1

[7] = target: Fuc(a1-2)[GalNAc(a1-3)]Gal(b1-4)GlcNAc(b1-3)Gal(b1-4)GlcNAc
Outline: as §1

[8] = target: Fuc(a1-2)[GalNAc(a1-3)]Gal(b1-4)GlcNAc(b1-3)Gal(b1-4)GlcNAc(b1-3)Gal(b1-4)GlcNAc
Outline: as §1

[9] = target: Fuc(a1-2)[GalNAc(a1-3)]Gal(b1-4)GlcNAc(b1-3)GalNAc
Outline: as §1

[10] = target: Fuc(a1-2)[GalNAc(a1-3)]Gal(b1-4)GlcNAc(b1-3)[Fuc(a1-2)[GalNAc(a1-3)]Gal(b1-4)GlcNAc(b1-6)]GalNAc
Outline: as §1

[11] = target: Fuc(a1-2)[GalNAc(a1-3)]Gal(b1-4)GlcNAc(b1-6)GalNAc
Outline: as §1

[12] = target: Fuc(a1-2)[GalNAc(a1-3)]Gal(b1-4)[Fuc(a1-3)]GlcNAc
Outline: as §1

[13] = target: Fuc(a1-2)[GalNAc(a1-3)]Gal(b1-4)[Fuc(a1-3)]GlcNAc(b1-3)GalNAc
Outline: as §1

[14] = target: Fuc(a1-2)[GalNAc(a1-4)]Gal(b1-4)GlcNAc
Outline: as §1

[15] = target: Fuc(a1-2)[GalNAc(b1-3)]Gal
Outline: as §1

Fuc(a1-3)GlcNAc = target: Fuc(a1-3)GlcNAc
Outline: as §1

[16] = target: Fuc(a1-3)[Gal(b1-4)]Glc6S
Outline: as §1

[17] = target: Fuc(a1-3)[Gal(b1-4)]GlcNAc
Outline: as §1

[18] = target: Fuc(a1-3)[Gal(b1-4)]GlcNAc(b1-2)Man
Outline: as §1

[19] = target: Fuc(a1-3)[Gal(b1-4)]GlcNAc(b1-2)Man(a1-3)[Fuc(a1-3)[Gal(b1-4)]GlcNAc(b1-2)Man(a1-6)]Man(b1-4)GlcNAc(b1-4)GlcNAc
Outline: as §1

[20] = target: Fuc(a1-3)[Gal(b1-4)]GlcNAc(b1-2)Man(a1-3)[Fuc(a1-3)[Gal(b1-4)]GlcNAc(b1-2)Man(a1-6)]Man(b1-4)GlcNAc(b1-4)[Fuc(a1-6)]GlcNAc
Outline: as §1

[21] = target: Fuc(a1-3)[Gal(b1-4)]GlcNAc(b1-3)Gal(b1-3)[Fuc(a1-4)]GlcNAc
Outline: as §1

[22] = target: Fuc(a1-3)[Gal(b1-4)]GlcNAc(b1-3)Gal(b1-4)[Fuc(a1-3)]GlcNAc
Outline: as §1

[23] = target: Fuc(a1-3)[Gal(b1-4)]GlcNAc(b1-3)Gal(b1-4)[Fuc(a1-3)]GlcNAc(b1-3)Gal(b1-4)[Fuc(a1-3)]GlcNAc
Outline: as §1

[24] = target: Fuc(a1-3)[Gal(b1-4)]GlcNAc(b1-3)GalNAc
Outline: as §1

[25] = target: Fuc(a1-3)[Gal(b1-4)]GlcNAc(b1-6)GalNAc
Outline: as §1

[26] = target: Fuc(a1-3)[Gal(b1-4)]GlcNAc(b1-6)[Gal(b1-3)GlcNAc(b1-3)]Gal(b1-4)Glc
Outline: as §1

[27] = target: Fuc(a1-3)[Gal(b1-4)]GlcNAc6S
Outline: as §1

[28] = target: Fuc(a1-3)[Gal3S(b1-4)]Glc
Outline: as §1

[29] = target: Fuc(a1-3)[Gal3S(b1-4)]GlcNAc
Outline: as §1

[30] = target: Fuc(a1-3)[Gal3S(b1-4)]GlcNAc6S
Outline: as §1

[31] = target: Fuc(a1-3)[GalNAc(b1-4)]GlcNAc
Outline: as §1

[32] = target: Fuc(a1-3)[GalNAc(b1-4)]GlcNAc6S
Outline: as §1

Fuc(a1-4)GlcNAc = target: Fuc(a1-4)GlcNAc
Outline: as §1

Fuc(b1-3)GlcNAc = target: Fuc(b1-3)GlcNAc
Outline: as §1

Gal(a1-2)Gal = target: Gal(a1-2)Gal
Outline: as §1

Gal(a1-3)Gal = target: Gal(a1-3)Gal
Outline: as §1

B1: PX9937I-bfa-538-26-538 (Bacteroides fragilis) (protein)
chain: DKLDLSPIDYYGSGSYWKTEAQATAYIDGIHKHLRDAAWQHTITFGELRGGRFITGASSDGMGVSNGDIILQNFDETHTGVSKFGDLFGRITNLNLFIARVTDATYLSDEMKNFYLGEVYGLRAFYYFDLYRIYGGVPLRLTADVVEGVIDPNKLYMARSTPKEVMTQIKSDLNKSMEYFGNMNDFDPYKRGKKVYWSKAATECLMGEVYLWTSKVTTGDDVANPADLTIAKTHLESVLNNYNLKMLDDFSQVFNAKNKANDEIIFAIRFLEGEATNSNGTFTYNVGTGSTKNRYQANGEVFGDALDIQNTGNQTYEYNKAVYQNFDDADTRKEATFIASYNKDGKTGELSLYGTHVRKNIGYVNAQGARVYCGDYIFYRLPWVYLTLAEIANMEGDNAAVAKYINLVRKRAYGNAWDETLYAYPETADFTTNELAILHEKDKEFIQEGQRWWDLRRMTLTKGGTPLVFCKEGSLLGDAPILNKSTEAHKLLWPIEKTMLNKDPALEQTPGYK
glycan array binding signal (z-score) [1]: -0.421
glycan array binding signal (z-score) [2]: -0.366
glycan array binding signal (z-score) [3]: -0.064
glycan array binding signal (z-score) [4]: -0.539
glycan array binding signal (z-score) [5]: 0.566
glycan array binding signal (z-score) [6]: -0.4
glycan array binding signal (z-score) [7]: -0.891
glycan array binding signal (z-score) [8]: 0.731
glycan array binding signal (z-score) [9]: -0.541
glycan array binding signal (z-score) [10]: -0.539
glycan array binding signal (z-score) [11]: 0.845
glycan array binding signal (z-score) [12]: 0.412
glycan array binding signal (z-score) [13]: 2.1
glycan array binding signal (z-score) [14]: 1.66
glycan array binding signal (z-score) [15]: -0.317
glycan array binding signal (z-score) (Fuc(a1-3)GlcNAc): -0.104
glycan array binding signal (z-score) [16]: 0.068
glycan array binding signal (z-score) [17]: -0.402
glycan array binding signal (z-score) [18]: -0.738
glycan array binding signal (z-score) [19]: 3.92
glycan array binding signal (z-score) [20]: 0.188
glycan array binding signal (z-score) [21]: 2.12
glycan array binding signal (z-score) [22]: 0.002
glycan array binding signal (z-score) [23]: -0.05
glycan array binding signal (z-score) [24]: -0.545
glycan array binding signal (z-score) [25]: 0.465
glycan array binding signal (z-score) [26]: 0.684
glycan array binding signal (z-score) [27]: -0.898
glycan array binding signal (z-score) [28]: 1.07
glycan array binding signal (z-score) [29]: 0.026
glycan array binding signal (z-score) [30]: -0.028
glycan array binding signal (z-score) [31]: 1.19
glycan array binding signal (z-score) [32]: -0.039
glycan array binding signal (z-score) (Fuc(a1-4)GlcNAc): 0.593
glycan array binding signal (z-score) (Fuc(b1-3)GlcNAc): -0.173
glycan array binding signal (z-score) (Gal(a1-2)Gal): -0.306
glycan array binding signal (z-score) (Gal(a1-3)Gal): -0.371

Reference: the supplement of paper PMC8728848
